The target of series [1] is T1, GST-ZNF32 (human) (UniProt P17041).
T1 sequence (looked up): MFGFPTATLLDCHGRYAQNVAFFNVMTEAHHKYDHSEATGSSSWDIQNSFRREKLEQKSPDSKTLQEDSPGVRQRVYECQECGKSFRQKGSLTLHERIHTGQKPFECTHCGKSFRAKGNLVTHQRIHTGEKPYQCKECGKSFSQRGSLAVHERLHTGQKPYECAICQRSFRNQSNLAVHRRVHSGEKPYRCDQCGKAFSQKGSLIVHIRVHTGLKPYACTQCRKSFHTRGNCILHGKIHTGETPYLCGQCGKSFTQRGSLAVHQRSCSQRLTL
The series can be described thus: competition with a labelled probe. The conditions noted are these: 200-fold excess unlabeled probe attenuates the N1 complex; LightShift Chemiluminescent EMSA kit reaction buffer (composition and pH not given), 2 nM biotin probe, 20 min at room temperature; 5% native gel in 0.5x TBE; recombinant protein; residues 1-273; protein details: GST (N-terminal, pGEX-5X-3). A general note: In EMSA bound probe runs differently from free probe, usually more slowly.

Amino acid sequences for entries named in this document (tags omitted).
UniProt P08515, whole entry: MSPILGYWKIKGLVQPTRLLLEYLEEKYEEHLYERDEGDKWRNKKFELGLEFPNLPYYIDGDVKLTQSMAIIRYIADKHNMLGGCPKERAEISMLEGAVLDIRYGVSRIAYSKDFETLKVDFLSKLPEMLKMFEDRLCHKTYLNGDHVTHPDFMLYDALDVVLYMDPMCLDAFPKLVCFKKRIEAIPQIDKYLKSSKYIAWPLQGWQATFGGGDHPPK

The target of the next series is GST (control) (UniProt P08515). Description: EMSA. The settings on record: LightShift Chemiluminescent EMSA kit reaction buffer (composition and pH not given), 2 nM biotin probe, 20 min at room temperature; 5% native gel in 0.5x TBE; recombinant protein; protein details: GST; label: 5'-biotin.
Series [2] addresses T1, GST-ZNF32 (human). Description: EMSA. The conditions noted are these: 2 ug GST-ZNF32, 2 nM probe; LightShift Chemiluminescent EMSA kit reaction buffer (composition and pH not given), 2 nM biotin probe, 20 min at room temperature; 5% native gel in 0.5x TBE; recombinant protein; residues 1-273; protein details: GST (N-terminal, pGEX-5X-3); label: 5'-biotin.
Series [3] addresses T2, ZNF32 overexpressed (LV6-ZNF32) in BE(2)-C nuclear extract (UniProt P17041).
T2 sequence (looked up, limits assumed): T1 sequence (looked up)
Description: EMSA. The conditions noted are these: 10 ug nuclear extract, complex increased by ZNF32 overexpression, decreased in ZNF32-silenced (lv-ZNF32) cells; LightShift Chemiluminescent EMSA kit reaction buffer (composition and pH not given), 2 nM biotin probe, 20 min at room temperature; 5% native gel in 0.5x TBE; protein in an extract; label: 5'-biotin.

For at least one entry, the source does not settle the construct or the ends of the probe. For some of these results: A negative result means that nothing was seen under these conditions. For some of these results: Results from cells or extracts need not show a direct contact. For some of these results: Protein sequences can lack the tags named with them.

Consider “TTTGTAGTCAAGTGCATTTTAGCCACAAAGAT (double strand) [SOX2 promoter competitor (unlabeled probe)]”, for which the binding result with GST-ZNF32 (human) [1] is reported as “binds”.
As for “TTTGTAGTCAAGTGCATTTTAGCCACAAAGAT (double strand) [SOX2 promoter probe]”, the binding result with GST (control) is recorded as “no binding”; with GST-ZNF32 (human) [2], “binds”; in series [3], “binds”.

For the origin of these results see publication PMC5342562.
